From patent US20060241122A1, “Combination therapy for the treatment of neoplasms” (priority 2003, published 2006)
Read-outs that look alike come from different tables or passages of the source.

Tests used:
[1] = test system: human colorectal carcinoma HCT116 cells; assay: Anti-proliferation assay (Alamar Blue metabolism), HCT116 cells;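 also: cells in 384-well plates exposed to compound combination matrices for 72 h, Alamar Blue fluorescence read (excitation 530 nm), inhibition calculated against mean of vehicle-only wells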
[2] = test system: human melanoma SKMEL-28 cells; assay: Anti-proliferation assay (Alamar Blue metabolism), SKMEL-28 cells; type: cell-based; conditions: SK-MEL-28, read-out: maximal inhibition
Description: (§1) The combination matrices were used immediately and discarded.

[3] = test system: human prostate cancer DU145 cells; assay: Anti-proliferation assay (Alamar Blue metabolism), DU145 cells; type: cell-based
Description: as §1

[4] = test system: human pancreatic cancer PANC1 cells; assay: Anti-proliferation assay (Alamar Blue metabolism), PANC1 cells; type: cell-based; conditions: PANC-1, PANC1 cells
Description: as §1

[5] = HCT-116, read-out: Percent inhibition of Alamar Blue Metabolism, atorvastatin […], clotrimazole 0.0 μM

What does the source list for `CC(C)c1c(C(=O)Nc2ccccc2)c(-c2ccccc2)c(-c2ccc(F)cc2)n1CC[C@@H](O)C[C@@H](O)CC(=O)O` [Atorvastatin, atorvastatin]?
inhibition at 18 µM ([1]; HCT-116, HCT116 cells, 18 μM atorvastatin + […] ketoconazole): 68.3%; inhibition at 0.28 µM ([1]; HCT-116, read-out: Percent inhibition of Alamar Blue Metabolism, atorvastatin 0.28 μM, ketoconazole 0 μM): -4.3%; inhibition at 0.28 µM ([1]; HCT-116, read-out: Percent inhibition of Alamar Blue Metabolism, atorvastatin 0.28 μM, terconazole 0 μM): 0.3%; inhibition at 0.3 µM ([1]; HCT-116, read-out: Percent inhibition of Alamar Blue Metabolism, atorvastatin 0.3 μM, clotrimazole 0.0 μM): 8.1%; inhibition at 0.3 µM ([1]; HCT-116, read-out: Percent inhibition of Alamar Blue Metabolism, atorvastatin 0.3 μM, econazole 0.0 μM): 2.7%; inhibition at 0.6 µM ([1]; HCT-116, read-out: Percent inhibition of Alamar Blue Metabolism, atorvastatin 0.6 μM, clotrimazole 0.0 μM): 19.3%; inhibition at 0.6 µM ([1]; HCT-116, read-out: Percent inhibition of Alamar Blue Metabolism, atorvastatin 0.6 μM, econazole 0.0 μM): 2.5%; inhibition at 9 µM ([1]; HCT-116, read-out: Percent inhibition of Alamar Blue Metabolism, atorvastatin 9.0 μM, clotrimazole 0.0 μM): 56.8%; inhibition at 9 µM ([1]; HCT-116, read-out: Percent inhibition of Alamar Blue Metabolism, atorvastatin 9.0 μM, econazole 0.0 μM): 32.8%; inhibition at 9 µM ([1]; HCT-116, read-out: Percent inhibition of Alamar Blue Metabolism, atorvastatin 9 μM, ketoconazole 0 μM): 20.4%; inhibition at 9 µM ([1]; HCT-116, read-out: Percent inhibition of Alamar Blue Metabolism, atorvastatin 9 μM, terconazole 0 μM): 21%; inhibition at 18 µM ([1]; HCT-116, read-out: Percent inhibition of Alamar Blue Metabolism, atorvastatin 18 μM, ketoconazole 0 μM): 42.7%; inhibition at 18 µM ([1]; HCT-116, read-out: Percent inhibition of Alamar Blue Metabolism, atorvastatin 18 μM, terconazole 0 μM): 40.2%; inhibition at 36 µM ([1]; HCT-116, read-out: Percent inhibition of Alamar Blue Metabolism, atorvastatin 36 μM, terconazole 0 μM): 66.4%; inhibition at 18 µM [1, 5]: 59.8%; inhibition at 36 µM [1, 5]: 89.3%; inhibition at 18 µM ([1]; HCT-116, read-out: Percent inhibition of Alamar Blue Metabolism, atorvastatin […], econazole 0.0 μM): 53%; inhibition at 36 µM ([1]; HCT-116, read-out: maximal inhibition, HCT116 cells, atorvastatin 36 μM alone (Example 7)): 69%; inhibition at 36 µM ([1]; HCT-116, read-out: maximal inhibition, HCT116 cells, atorvastatin 36 μM alone (Example 17)): 89.3%; inhibition at 36 µM ([1]; HCT-116, read-out: maximal inhibition, HCT116 cells, atorvastatin 36 μM alone (Example 21)): 66.4%; inhibition at 36 µM [2]: 45.9%; inhibition ([3]; DU145 cells, atorvastatin in the presence of 28 μM itraconazole): 55.6%; inhibition at 36 µM ([3]; Homo sapiens, DU-145, DU145 cells, atorvastatin 36 μM alone, read-out: maximal inhibition): 25.6%; inhibition at 9 µM ([4]; 9 μM atorvastatin + 7 μM itraconazole): 36%; inhibition at 9 µM ([4]; 9 μM atorvastatin, absence of itraconazole): 6.8%; inhibition at 36 µM ([4]; atorvastatin 36 μM alone, read-out: maximal inhibition): 37.5%
